Source: patent US20210024583A1, “COMPOSITIONS AND METHODS FOR PEPTIDE MEDIATED OLIGONUCLEOTIDE DELIVERY TO THE CENTRAL NERVOUS SYSTEM” (The Regents of the University of California, priority 2019, published 2021)
Part of at least one peptide drawing is inferred or uncertain, most often the ends. Where no end group is shown, it is not given here.

Assays:
α-synuclein [1] = assay: α-synuclein levels and co-localization in cortex after single i.p. FITC siαSyn:peptide; format: in vivo, mouse; settings: single i.p. injection of FITC labeled siαSyn conjugated to the named peptide, 4 hours
α-synuclein [2] = assay: α-synuclein immunoblot of N2A cultures treated with peptide-siαSyn; settings: N2A cells, 48 hours post-treatment, siαSyn conjugated to the named peptide

RLTRKRGLKLAGGGGGRRRRRRRRR [ApoB^11]
α-syn protein levels in cells of the cortex (α-synuclein [1]): reduced α-syn protein levels | α-synuclein accumulation, % of control levels (immunoblot, ratio to β-actin) (α-synuclein [2]): ~35%
